At least one structure is not confirmed: it was looked up by name or label, or the drawing left a doubt.
system: E. coli; assay: Antimicrobial disc assay against E. coli; format: cell-based; settings: another assay, comparison with traditional antibiotics; results not shown

| SMILES | Impact of sesquiterpenoids on activity against E. coli |
| --- | --- |
| CN(C)[C@@H]1C(O)=C(C(N)=O)C(=O)[C@@]2(O)C(O)=C3C(=O)c4c(O)cccc4[C@@](C)(O)[C@H]3C[C@@H]12 [tetracycline] | no impact |
| CCC[C@@H]1C[C@@H](C(=O)N[C@@H]([C@H]2O[C@H](SC)[C@H](O)[C@@H](O)[C@H]2O)[C@H](C)Cl)N(C)C1 [clindamycin] | no impact |
| C[C@@H](O)[C@H]1C(=O)N2C(C(=O)O)=C(SCCN=CN)C[C@H]12 [imipenem] | no impact |
